Results are given in words; binding and its absence hold for the method and conditions named. Binding seen in cells or lysates may run through a third protein. Some entries that bind do so weakly or less than the wild type.

By UniProt entry, the sequences of proteins in these tests, tags left out.
UniProt Q92831: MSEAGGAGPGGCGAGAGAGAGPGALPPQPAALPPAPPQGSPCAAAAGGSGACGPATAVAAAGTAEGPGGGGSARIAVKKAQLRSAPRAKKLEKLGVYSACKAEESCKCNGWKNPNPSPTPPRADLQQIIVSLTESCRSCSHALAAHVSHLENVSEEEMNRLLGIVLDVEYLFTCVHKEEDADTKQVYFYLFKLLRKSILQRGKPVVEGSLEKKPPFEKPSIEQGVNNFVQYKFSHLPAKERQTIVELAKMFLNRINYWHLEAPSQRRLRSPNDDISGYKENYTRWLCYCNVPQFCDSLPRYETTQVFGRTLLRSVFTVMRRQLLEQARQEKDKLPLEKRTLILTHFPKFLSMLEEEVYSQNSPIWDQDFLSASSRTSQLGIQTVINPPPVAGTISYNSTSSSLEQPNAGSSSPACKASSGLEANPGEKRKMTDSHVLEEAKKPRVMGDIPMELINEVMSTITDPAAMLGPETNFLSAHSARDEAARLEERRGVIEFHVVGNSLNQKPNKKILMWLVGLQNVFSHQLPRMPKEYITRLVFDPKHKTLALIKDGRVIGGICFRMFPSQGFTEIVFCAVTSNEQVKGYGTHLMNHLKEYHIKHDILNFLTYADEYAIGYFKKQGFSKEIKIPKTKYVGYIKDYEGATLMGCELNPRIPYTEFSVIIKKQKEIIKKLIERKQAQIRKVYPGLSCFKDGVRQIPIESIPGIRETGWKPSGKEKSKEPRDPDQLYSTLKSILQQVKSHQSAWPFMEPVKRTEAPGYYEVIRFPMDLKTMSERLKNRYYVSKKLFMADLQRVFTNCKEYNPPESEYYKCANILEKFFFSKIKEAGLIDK
UniProt P08151: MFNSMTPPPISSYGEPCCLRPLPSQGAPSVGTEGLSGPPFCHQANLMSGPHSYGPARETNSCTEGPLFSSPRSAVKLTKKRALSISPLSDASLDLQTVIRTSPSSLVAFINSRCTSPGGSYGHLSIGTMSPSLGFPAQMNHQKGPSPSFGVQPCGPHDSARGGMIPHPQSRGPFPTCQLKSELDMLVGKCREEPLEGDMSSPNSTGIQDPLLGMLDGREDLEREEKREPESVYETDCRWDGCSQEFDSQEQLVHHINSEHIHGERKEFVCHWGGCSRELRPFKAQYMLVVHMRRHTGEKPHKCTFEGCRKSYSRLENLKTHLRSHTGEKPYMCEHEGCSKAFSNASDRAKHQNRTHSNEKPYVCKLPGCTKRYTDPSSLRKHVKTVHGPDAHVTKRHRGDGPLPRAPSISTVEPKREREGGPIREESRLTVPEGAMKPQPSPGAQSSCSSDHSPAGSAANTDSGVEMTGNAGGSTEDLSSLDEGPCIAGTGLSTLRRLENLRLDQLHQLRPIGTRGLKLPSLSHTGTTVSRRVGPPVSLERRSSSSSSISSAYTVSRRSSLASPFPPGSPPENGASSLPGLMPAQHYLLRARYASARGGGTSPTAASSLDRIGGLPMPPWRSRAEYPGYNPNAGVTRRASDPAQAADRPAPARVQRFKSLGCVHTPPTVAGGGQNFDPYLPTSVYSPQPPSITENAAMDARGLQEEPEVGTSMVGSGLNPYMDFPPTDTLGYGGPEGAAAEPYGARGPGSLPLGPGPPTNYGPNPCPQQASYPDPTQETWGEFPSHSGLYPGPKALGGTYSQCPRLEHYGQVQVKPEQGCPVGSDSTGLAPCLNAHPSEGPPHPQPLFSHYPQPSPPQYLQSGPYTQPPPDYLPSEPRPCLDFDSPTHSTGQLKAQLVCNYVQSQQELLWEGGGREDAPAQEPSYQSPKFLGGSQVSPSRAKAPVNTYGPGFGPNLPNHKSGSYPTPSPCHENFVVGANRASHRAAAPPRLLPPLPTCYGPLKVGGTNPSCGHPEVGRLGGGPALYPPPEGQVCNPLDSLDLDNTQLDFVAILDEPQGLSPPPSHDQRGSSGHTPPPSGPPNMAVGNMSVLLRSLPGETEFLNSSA

In this test the target is PCAF (human (endogenous in HCT116)) (UniProt Q92831). The test is described as follows: co-IP; HCT116 cell lysates (cells with or without genipin) immunoprecipitated with anti-PCAF, anti-β-TrCP or anti-ITCH antibodies overnight at 4°C, protein G agarose beads, immunoblotted with an anti-GLI1 antibody. On the technique in general: Immunoblotting shows a protein as a band on a membrane.

With GLI1 (from UniProt P08151 1-1106), the binding entry is “binds”.

(Values after PMC5731927.)
